Test results: paper doi:10.1101/2024.12.10.627716
No constants are given. Whether binding was seen depends on the method and setting. For some of these results: Binding seen in cells or lysates may run through a third protein. Some entries that bind do so weakly or less than the wild type. For some of these results: Sequences can lack the tags named with a protein.

Chains of the proteins cited; added tags and fusions are not shown.
UniProt Q92804, whole entry: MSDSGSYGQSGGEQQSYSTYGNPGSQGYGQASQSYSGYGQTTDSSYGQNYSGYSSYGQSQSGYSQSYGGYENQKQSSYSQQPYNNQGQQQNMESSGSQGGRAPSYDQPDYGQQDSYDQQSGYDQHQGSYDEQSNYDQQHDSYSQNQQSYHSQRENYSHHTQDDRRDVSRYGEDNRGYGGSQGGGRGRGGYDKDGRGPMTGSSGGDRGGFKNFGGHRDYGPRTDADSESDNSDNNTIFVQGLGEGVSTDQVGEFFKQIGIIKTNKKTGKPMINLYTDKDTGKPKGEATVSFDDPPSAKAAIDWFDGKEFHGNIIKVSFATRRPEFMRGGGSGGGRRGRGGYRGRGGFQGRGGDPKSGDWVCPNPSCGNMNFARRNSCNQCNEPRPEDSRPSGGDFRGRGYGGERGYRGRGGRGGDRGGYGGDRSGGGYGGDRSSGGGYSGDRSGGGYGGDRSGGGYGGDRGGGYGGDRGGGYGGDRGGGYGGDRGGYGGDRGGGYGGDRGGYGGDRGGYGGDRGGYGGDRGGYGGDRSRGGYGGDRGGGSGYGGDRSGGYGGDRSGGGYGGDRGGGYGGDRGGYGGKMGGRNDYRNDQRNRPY
UniProt P19338, whole entry: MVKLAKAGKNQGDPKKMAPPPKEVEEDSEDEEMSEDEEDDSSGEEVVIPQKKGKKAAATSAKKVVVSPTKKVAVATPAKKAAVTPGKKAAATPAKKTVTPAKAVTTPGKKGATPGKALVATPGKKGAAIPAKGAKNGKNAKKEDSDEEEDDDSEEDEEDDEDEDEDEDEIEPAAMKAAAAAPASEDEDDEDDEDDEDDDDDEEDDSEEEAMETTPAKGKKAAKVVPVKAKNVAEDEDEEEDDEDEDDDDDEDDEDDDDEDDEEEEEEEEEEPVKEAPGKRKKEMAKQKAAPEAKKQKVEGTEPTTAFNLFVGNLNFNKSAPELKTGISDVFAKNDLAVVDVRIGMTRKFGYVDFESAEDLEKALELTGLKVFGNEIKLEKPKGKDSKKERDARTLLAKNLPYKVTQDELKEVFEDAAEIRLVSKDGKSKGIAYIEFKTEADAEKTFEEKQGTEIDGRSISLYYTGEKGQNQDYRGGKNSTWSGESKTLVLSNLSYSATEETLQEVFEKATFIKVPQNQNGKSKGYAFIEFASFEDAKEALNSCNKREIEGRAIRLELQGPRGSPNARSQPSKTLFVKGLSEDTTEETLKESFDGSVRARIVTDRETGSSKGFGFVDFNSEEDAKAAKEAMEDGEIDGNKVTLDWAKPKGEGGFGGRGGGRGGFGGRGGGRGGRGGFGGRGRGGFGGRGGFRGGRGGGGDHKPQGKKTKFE
UniProt P09651, whole entry: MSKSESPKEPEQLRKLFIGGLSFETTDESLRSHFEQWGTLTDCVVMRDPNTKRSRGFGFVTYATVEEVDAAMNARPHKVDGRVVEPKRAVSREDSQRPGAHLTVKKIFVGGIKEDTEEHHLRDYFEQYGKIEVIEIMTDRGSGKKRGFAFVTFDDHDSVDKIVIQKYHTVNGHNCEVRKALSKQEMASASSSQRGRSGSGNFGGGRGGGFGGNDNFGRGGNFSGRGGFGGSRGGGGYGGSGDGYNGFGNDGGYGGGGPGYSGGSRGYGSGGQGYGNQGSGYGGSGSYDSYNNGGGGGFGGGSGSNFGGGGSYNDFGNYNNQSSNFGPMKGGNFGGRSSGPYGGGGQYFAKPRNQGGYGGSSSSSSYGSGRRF

Tests used:
[1] = target: FLAG-tagged TAF15, expressed in HEK293T cells (UniProt Q92804); assay: co-IP
[2] = target: FLAG-tagged Nucleolin, expressed in HEK293T cells (UniProt P19338); assay: co-IP
[3] = target: T1, FLAG-tagged RBFOX2, expressed in HEK293T cells (UniProt O43251); assay: co-IP
T1 sequence: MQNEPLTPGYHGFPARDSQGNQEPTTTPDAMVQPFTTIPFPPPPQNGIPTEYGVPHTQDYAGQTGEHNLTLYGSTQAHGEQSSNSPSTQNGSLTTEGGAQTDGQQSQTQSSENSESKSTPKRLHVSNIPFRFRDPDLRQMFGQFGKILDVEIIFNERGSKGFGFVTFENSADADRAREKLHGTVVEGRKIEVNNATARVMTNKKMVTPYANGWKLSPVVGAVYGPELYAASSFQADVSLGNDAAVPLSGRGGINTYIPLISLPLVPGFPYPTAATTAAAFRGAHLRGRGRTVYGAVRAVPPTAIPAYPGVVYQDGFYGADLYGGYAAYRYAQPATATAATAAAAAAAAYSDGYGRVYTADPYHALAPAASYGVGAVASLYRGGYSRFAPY

[4] = target: T2, FLAG-tagged Fibrillarin, expressed in HEK293T cells (UniProt P22087); assay: co-IP
T2 sequence: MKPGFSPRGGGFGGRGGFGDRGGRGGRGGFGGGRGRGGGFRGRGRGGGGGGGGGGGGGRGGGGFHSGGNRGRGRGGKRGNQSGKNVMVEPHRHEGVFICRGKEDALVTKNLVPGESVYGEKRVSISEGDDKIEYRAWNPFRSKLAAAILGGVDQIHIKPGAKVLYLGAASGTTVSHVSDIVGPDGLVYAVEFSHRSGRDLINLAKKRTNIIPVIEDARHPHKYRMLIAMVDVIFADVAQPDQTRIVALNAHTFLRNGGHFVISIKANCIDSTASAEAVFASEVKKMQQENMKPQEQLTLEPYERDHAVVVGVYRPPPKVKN

[5] = target: T3, FLAG-tagged GAR1, expressed in HEK293T cells (UniProt Q9NY12); assay: co-IP
T3 sequence: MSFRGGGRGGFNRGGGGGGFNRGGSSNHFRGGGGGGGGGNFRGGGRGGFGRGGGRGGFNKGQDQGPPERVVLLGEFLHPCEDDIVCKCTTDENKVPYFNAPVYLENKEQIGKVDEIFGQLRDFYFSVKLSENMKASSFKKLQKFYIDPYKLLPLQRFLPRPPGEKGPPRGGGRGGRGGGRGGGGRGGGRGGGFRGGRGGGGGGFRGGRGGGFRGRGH

[6] = target: FLAG-tagged hnRNPK, expressed in HEK293T cells (UniProt P61978); assay: co-IP
[7] = target: FLAG-tagged hnRNPA1, expressed in HEK293T cells (UniProt P09651); assay: co-IP
hnRNPA1-FLAG [8] = target: hnRNPA1-FLAG (UniProt P09651); assay: SEC
[9] = target: T4, fibrillarin (construct of the gel filtration and cryo-EM experiments) (UniProt P22087); assay: SEC
T4 sequence: T2 sequence

hnRNPA1-FLAG [10] = target: hnRNPA1-FLAG (UniProt P09651); assay: pull-down

Measured: binding

MYC-PRMT1 wild type, expressed in HEK293T cells (from UniProt Q99873 1-371) (enzyme)
not listed: hnRNPA1-FLAG [8] | [9] | hnRNPA1-FLAG [10]
binds: all other assays above

purified recombinant human PRMT1 protein (wild type) (from UniProt Q99873 1-371) (enzyme)
binds: hnRNPA1-FLAG [8] | [9] | hnRNPA1-FLAG [10]
